# Laboratory results: patent publication US20140314784A1
# Chains of the proteins cited; added tags and fusions are not shown. Lines headed by an entry give the natural chain unless they say otherwise; changes in a name come on top.
# UniProt P70658: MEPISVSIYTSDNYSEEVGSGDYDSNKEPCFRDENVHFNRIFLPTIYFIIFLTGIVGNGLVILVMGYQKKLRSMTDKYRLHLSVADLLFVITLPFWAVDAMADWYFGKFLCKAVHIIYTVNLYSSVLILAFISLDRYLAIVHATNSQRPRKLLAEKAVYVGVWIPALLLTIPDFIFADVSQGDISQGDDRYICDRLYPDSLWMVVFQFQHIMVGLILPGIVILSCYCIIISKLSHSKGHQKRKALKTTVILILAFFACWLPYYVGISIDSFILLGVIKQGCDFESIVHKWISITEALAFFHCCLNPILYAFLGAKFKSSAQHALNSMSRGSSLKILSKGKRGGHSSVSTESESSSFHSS
# These are yes or no findings as the source states them, for the method shown.
# What was measured:
# mouse CXCR4 (mouse) [1] = target: mouse CXCR4 (mouse) (UniProt P70658); assay: staining of mouse lymphocytes and EL4 cells; mouse lymphocytes and mouse B-cell line EL4 (endogenous mouse CXCR4)
# mouse CXCR4 (mouse) [2] = target: mouse CXCR4 (mouse) (UniProt P70658); assay: flow cytometry, CHO cells transiently transfected with MoCXCR4, dot plot SSC-A against PE-A
# mouse CXCR4 (mouse) [3] = target: mouse CXCR4 (mouse) (UniProt P70658); assay: stated in the epitope mapping example (swap mutants); general conclusion stated in the swap-mutant epitope mapping example
binder,measurement,setting,value
"6C7 (antibody, V domains shown) VH: QVQLVESGGGVVQPGRSLRLSCAASGFTFSNYVMHWVRQAPGKGLEWVAVIWYDGSNKYYADSVKGRFTISRDNSKNTLSLQMNSLRAEDTAVYYCERGEGYYGSGSRYRGYYYGMDVWGQGTTVTVSS VL: DIQMTQSPSSLSASVGDRVTITCRASQGIRTDLGWYQQKPGKAPKRLIYAASSLQSGVPSRFSGSGSGTEFTLTISSLQPEDFATYYCLQHNSYPRTFGQGTKVEIK",binding,mouse CXCR4 (mouse) [1],no binding
same,binding,mouse CXCR4 (mouse) [2],no binding (tested: 0.1 µg/ml)
same,binding,mouse CXCR4 (mouse) [3],no binding
